Source: the supplement of paper PMC10849652
The other results are listed elsewhere or left out.

Amino acid sequences for entries named in this document (tags omitted). A change or cut given only in a name is not applied to a line headed by its entry.
UniProt Q9BZQ8: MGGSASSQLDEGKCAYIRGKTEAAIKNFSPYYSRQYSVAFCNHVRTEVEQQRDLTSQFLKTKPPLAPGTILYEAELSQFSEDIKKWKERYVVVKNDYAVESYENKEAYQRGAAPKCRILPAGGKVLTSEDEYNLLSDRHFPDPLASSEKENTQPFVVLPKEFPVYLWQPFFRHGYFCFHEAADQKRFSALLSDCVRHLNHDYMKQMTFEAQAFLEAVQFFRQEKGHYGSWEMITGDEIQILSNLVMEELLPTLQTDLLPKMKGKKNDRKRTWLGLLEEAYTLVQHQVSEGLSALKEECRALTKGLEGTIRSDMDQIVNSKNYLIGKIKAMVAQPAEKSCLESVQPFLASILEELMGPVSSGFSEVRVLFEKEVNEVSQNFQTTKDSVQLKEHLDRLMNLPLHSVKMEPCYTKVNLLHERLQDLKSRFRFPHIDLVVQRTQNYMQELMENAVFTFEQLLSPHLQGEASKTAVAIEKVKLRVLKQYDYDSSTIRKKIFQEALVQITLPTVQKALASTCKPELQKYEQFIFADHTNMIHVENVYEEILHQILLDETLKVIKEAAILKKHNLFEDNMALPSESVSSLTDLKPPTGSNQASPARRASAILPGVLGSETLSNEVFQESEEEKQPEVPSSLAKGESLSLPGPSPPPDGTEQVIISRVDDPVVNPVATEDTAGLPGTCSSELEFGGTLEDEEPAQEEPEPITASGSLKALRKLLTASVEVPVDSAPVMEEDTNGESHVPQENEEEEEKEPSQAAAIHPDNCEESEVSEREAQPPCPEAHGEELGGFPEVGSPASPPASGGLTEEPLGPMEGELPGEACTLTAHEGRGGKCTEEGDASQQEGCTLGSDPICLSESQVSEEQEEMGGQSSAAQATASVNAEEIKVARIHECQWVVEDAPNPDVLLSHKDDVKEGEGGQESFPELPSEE
UniProt Q9BYT8, whole entry, looked up: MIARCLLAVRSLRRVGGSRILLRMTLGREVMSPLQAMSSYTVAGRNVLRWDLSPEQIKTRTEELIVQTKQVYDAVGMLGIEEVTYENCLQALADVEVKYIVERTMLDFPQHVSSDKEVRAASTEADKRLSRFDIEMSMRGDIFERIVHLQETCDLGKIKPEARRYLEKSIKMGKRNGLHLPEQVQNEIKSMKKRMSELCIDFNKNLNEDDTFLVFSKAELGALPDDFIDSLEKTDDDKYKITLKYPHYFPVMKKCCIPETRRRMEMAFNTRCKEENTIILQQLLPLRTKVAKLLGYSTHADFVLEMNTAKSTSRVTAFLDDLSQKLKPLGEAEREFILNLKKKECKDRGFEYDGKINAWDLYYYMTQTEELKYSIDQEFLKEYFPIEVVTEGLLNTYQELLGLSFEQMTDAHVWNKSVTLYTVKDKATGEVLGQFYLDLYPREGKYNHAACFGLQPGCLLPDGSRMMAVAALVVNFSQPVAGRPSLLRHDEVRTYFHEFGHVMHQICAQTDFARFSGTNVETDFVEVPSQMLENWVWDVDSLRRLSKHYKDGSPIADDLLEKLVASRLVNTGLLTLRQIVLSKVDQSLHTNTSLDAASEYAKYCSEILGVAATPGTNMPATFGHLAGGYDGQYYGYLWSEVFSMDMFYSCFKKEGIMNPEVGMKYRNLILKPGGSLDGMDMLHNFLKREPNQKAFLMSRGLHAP
UniProt Q9Y3C1: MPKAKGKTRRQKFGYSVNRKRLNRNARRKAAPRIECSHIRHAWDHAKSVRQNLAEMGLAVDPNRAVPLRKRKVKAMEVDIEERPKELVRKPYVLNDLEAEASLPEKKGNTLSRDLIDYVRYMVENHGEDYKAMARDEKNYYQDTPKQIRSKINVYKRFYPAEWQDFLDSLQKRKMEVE
UniProt Q9NX02: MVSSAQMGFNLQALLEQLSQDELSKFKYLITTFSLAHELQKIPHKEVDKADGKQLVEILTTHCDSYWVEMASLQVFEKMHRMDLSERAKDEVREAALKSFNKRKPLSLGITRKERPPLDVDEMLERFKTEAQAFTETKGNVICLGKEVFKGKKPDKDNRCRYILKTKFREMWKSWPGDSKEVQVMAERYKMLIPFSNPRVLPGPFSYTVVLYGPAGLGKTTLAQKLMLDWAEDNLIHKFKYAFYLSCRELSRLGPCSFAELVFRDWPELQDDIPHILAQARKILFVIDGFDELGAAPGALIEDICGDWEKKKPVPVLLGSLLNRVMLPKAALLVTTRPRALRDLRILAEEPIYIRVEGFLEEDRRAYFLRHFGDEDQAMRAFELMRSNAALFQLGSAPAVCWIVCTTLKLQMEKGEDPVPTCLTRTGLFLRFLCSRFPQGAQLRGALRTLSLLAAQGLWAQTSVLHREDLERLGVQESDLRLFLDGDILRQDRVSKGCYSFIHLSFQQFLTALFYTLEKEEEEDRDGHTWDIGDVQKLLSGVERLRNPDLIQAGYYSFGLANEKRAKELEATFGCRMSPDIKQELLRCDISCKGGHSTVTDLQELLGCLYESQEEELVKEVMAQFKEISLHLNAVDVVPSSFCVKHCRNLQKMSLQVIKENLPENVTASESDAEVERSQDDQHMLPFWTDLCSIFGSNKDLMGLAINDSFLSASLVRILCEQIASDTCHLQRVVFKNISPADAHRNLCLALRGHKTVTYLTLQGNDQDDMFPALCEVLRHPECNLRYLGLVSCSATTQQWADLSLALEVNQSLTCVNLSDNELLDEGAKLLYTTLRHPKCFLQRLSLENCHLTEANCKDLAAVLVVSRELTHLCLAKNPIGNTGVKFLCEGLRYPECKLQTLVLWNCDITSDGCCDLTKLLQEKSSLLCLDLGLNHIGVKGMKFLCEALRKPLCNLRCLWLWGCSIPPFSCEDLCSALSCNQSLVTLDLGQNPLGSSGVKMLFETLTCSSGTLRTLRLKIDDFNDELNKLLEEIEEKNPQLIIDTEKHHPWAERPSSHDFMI
UniProt P16083: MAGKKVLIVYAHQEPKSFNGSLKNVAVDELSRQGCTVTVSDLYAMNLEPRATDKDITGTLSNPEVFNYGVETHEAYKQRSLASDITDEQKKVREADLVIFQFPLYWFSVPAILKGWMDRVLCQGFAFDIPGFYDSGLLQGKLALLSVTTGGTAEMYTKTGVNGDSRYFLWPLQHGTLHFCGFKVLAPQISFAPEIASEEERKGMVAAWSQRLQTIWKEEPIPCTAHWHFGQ
UniProt Q14934: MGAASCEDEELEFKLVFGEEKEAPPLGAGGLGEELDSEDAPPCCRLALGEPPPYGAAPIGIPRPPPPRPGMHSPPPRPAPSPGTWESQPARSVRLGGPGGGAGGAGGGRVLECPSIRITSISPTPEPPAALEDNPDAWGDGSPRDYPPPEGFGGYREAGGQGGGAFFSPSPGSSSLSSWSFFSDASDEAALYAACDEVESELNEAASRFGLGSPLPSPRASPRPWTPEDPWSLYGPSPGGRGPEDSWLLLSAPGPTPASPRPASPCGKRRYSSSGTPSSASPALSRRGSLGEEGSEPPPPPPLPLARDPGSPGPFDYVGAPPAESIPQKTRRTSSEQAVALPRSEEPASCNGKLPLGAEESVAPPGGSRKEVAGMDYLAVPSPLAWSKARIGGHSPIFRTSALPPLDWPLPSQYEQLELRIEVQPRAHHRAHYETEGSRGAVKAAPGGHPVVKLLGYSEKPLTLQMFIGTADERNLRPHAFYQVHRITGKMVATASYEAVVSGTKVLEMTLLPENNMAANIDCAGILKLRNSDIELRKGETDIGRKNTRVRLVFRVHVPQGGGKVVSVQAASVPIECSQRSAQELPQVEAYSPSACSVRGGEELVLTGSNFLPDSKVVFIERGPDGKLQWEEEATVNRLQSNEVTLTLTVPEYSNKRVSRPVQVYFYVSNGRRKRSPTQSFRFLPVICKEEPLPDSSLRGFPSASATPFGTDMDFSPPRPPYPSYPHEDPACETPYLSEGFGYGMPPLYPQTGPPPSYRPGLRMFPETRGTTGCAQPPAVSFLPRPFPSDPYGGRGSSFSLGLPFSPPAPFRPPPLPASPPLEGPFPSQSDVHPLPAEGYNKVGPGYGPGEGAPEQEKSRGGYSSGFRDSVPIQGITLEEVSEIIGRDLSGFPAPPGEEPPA
UniProt O00221: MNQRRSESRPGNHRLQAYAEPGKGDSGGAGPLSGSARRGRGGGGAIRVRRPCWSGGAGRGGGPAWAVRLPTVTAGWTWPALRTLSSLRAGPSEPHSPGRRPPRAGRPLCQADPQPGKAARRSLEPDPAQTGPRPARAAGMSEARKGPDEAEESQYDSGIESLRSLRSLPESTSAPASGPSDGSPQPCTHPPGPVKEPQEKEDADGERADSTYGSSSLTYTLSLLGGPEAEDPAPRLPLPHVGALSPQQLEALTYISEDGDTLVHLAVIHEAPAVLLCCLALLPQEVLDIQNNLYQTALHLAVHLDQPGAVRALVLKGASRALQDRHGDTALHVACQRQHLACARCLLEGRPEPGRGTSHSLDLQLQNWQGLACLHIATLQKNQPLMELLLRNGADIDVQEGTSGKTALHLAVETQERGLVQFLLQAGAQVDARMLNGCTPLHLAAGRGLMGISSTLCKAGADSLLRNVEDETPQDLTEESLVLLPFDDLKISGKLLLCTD
UniProt Q13952: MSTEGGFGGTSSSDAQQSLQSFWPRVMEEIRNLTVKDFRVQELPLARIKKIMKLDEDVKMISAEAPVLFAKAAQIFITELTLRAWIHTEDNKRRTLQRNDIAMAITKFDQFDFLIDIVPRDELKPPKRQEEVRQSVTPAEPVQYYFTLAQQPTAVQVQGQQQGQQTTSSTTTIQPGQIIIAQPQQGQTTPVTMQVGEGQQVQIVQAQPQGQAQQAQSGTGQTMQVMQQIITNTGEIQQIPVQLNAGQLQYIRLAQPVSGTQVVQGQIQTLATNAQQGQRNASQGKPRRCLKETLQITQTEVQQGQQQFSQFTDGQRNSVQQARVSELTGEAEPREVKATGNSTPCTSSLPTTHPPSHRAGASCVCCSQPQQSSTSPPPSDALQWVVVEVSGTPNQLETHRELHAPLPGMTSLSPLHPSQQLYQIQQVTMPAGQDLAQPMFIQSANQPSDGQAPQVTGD
UniProt Q9Y2I1: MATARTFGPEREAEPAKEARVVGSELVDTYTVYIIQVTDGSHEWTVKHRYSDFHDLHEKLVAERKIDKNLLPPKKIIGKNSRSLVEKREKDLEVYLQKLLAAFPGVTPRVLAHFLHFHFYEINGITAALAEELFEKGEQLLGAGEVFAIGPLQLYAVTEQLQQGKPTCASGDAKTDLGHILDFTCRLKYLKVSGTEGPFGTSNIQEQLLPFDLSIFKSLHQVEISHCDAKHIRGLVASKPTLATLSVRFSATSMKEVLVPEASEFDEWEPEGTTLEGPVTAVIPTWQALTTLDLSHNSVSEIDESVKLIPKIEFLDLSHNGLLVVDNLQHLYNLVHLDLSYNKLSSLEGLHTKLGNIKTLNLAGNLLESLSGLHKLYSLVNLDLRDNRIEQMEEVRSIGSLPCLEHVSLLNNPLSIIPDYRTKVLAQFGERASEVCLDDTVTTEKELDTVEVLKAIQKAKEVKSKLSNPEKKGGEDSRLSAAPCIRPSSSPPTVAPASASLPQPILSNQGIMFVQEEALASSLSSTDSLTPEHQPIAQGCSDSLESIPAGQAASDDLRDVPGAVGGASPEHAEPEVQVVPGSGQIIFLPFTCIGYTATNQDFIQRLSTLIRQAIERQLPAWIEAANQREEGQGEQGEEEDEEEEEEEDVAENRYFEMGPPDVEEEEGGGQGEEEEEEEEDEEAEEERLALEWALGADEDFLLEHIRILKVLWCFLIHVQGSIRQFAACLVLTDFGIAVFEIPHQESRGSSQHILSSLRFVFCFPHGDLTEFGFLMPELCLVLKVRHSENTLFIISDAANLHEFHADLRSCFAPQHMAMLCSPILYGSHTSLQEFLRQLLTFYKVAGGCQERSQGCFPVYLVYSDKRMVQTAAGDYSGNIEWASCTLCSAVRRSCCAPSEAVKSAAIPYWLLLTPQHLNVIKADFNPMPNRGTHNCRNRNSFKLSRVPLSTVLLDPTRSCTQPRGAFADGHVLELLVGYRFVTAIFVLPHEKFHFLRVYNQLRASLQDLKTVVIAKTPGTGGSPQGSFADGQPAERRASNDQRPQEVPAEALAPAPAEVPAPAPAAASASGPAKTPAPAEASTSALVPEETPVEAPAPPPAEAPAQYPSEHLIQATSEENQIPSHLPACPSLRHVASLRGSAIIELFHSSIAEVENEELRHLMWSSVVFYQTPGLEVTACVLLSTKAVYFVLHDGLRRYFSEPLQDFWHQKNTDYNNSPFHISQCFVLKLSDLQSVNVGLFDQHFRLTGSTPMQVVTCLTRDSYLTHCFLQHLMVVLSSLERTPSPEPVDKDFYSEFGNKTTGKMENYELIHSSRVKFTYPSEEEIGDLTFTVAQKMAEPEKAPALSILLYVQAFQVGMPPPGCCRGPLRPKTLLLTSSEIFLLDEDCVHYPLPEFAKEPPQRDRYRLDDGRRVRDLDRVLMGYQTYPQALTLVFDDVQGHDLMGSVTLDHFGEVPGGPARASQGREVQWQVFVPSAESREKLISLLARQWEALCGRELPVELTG

Key:
Test in all cases: log2 fold change, soluble protein after heating vs DMSO (PISA); higher = thermal stabilisation; K562 cells, 10 uM, 30 min; active = over 0.2 and 3.5 SD of the protein, either way, in both replicates (recomputed)
[1] = compound: CS(=O)(=O)c1ccc(-c2cnc(N)c(C(=O)Nc3ccccc3)n2)cc1
How it was run: (§1)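 For each measurement, 10 μM compound was applied for 30 min to K562 cells at 2×10^6 cells/mL. Aliquots were heated for 3 min across 48°C-58°C, pooled, and extracted in PBS with 0.5% NP-40 at 4°C; the supernatant after 21,000xg for 90 min was soluble protein. This was quantified by TMTpro 16plex LC-MS/MS with channel sums equalised, and thermal stability was reported relative to control samples from duplicates, on a log2 fold-change scale.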

crizotinib = compound: C[C@@H](Oc1cc(-c2cnn(C3CCNCC3)c2)cnc1N)c1c(Cl)ccc(F)c1Cl [crizotinib]
How it was run: as §1

[2] = compound: C[C@@H]1COCCN1C2=NC(=NC(=C2)C3(CC3)S(=O)(=O)C)C4=C5C=CNC5=CC=C4
How it was run: as §1

[3] = compound: C[C@H](C1=CC=C(C=C1)C(=O)NC2=C3C=CNC3=NC=C2)N
How it was run: as §1

gandotinib = compound: Cc1cc(Nc2cc(CN3CCOCC3)c3nc(C)c(Cc4ccc(Cl)cc4F)n3n2)n[nH]1 [gandotinib]
How it was run: as §1

[4] = compound: Cc1cc(SCc2sc(-c3ccc(C(F)(F)F)cc3)nc2C)ccc1OCC(=O)O
How it was run: as §1

doramapimod = compound: Cc1ccc(-n2nc(C(C)(C)C)cc2NC(=O)Nc2ccc(OCCN3CCOCC3)c3ccccc23)cc1 [doramapimod]
How it was run: as §1

ispinesib = compound: Cc1ccc(C(=O)N(CCCN)[C@@H](c2nc3cc(Cl)ccc3c(=O)n2Cc2ccccc2)C(C)C)cc1 [ispinesib]
How it was run: as §1

bafetinib = compound: Cc1ccc(NC(=O)c2ccc(CN3CC[C@H](N(C)C)C3)c(C(F)(F)F)c2)cc1Nc1nccc(-c2cncnc2)n1 [bafetinib]
How it was run: as §1

[5] = compound: Cc1cccc(CC(=O)N2CCc3c2ccc(-c2cn(C)c4ncnc(N)c24)c3F)n1
How it was run: as §1

nilotinib = compound: Cc1cn(-c2cc(NC(=O)c3ccc(C)c(Nc4nccc(-c5cccnc5)n4)c3)cc(C(F)(F)F)c2)cn1 [nilotinib]
How it was run: as §1

[6] = compound: Cc1nc(Nc2n[nH]c3c2CN(C(=O)N[C@H](CN(C)C)c2ccccc2)C3(C)C)c2sccc2n1
How it was run: as §1

dasatinib = compound: Cc1nc(Nc2ncc(C(=O)Nc3c(C)cccc3Cl)s2)cc(N2CCN(CCO)CC2)n1 [dasatinib]
How it was run: as §1

[7] = compound: Cc1ncc(-c2ccnc(Nc3ccc(S(C)(=O)=O)cc3)n2)n1C(C)C
How it was run: as §1

[8] = compound: Cn1cc(-c2ccc3c(c2)CCN3C(=O)Cc2cccc(C(F)(F)F)c2)c2c(N)ncnc21
How it was run: as §1

[9] = compound: Cn1cc(-c2ccc3nnc(C(F)(F)c4ccc5ncccc5c4)n3n2)cn1
How it was run: as §1

tipifarnib = compound: Cn1cncc1[C@@](N)(c1ccc(Cl)cc1)c1ccc2c(c1)c(-c1cccc(Cl)c1)cc(=O)n2C [tipifarnib]
How it was run: as §1

mubritinib = compound: FC(F)(F)c1ccc(/C=C/c2nc(COc3ccc(CCCCn4ccnn4)cc3)co2)cc1 [mubritinib]
How it was run: as §1

duvelisib = compound: C[C@H](Nc1ncnc2nc[nH]c12)c1cc2cccc(Cl)c2c(=O)n1-c1ccccc1 [duvelisib]
How it was run: as §1

tozasertib = compound: Cc1cc(Nc2cc(N3CCN(C)CC3)nc(Sc3ccc(NC(=O)C4CC4)cc3)n2)n[nH]1 [tozasertib]
How it was run: as §1

Row | Target | log2 fold change [1] | log2 fold change (crizotinib) | log2 fold change [2] | log2 fold change [3] | log2 fold change (gandotinib) | log2 fold change [4] | log2 fold change (doramapimod) | log2 fold change (ispinesib) | log2 fold change (bafetinib) | log2 fold change [5] | log2 fold change (nilotinib) | log2 fold change [6] | log2 fold change (dasatinib) | log2 fold change [7] | log2 fold change [8] | log2 fold change [9] | log2 fold change (tipifarnib) | log2 fold change (mubritinib) | log2 fold change (duvelisib) | log2 fold change (tozasertib)
1 | NMT1 (UniProt P30419) | inactive: 0.085 | inactive: -0.17 | inactive: -0.058 | inactive: -0.032 | inactive: 0.066 | inactive: -0.003 | inactive: 0 | inactive: -0.164 | inactive: 0.064 | inactive: -0.026 | inactive: 0.049 | inactive: 0.06 | inactive: -0.012 | inactive: -0.003 | inactive: 0.026 | inactive: -0.001 | inactive: -0.026 | inactive: 0.076 | – | –
2 | NOB1 (UniProt Q9ULX3) | inactive: 0.012 | inactive: -0.142 | inactive: -0.033 | inactive: 0.15 | inactive: 0.019 | inactive: 0.113 | inactive: 0 | inactive: -0.038 | inactive: 0.014 | inactive: 0.093 | inactive: -0.044 | inactive: -0.005 | inactive: -0.054 | inactive: -0.045 | inactive: -0.003 | inactive: 0.059 | inactive: -0.106 | inactive: -0.043 | – | –
3 | NIBAN1 (UniProt Q9BZQ8) | inactive: 0.02 | inactive: -0.296 | inactive: 0.014 | inactive: 0.097 | inactive: -0.143 | inactive: 0.116 | inactive: 0.001 | inactive: -0.148 | inactive: -0.013 | inactive: 0.121 | inactive: -0.041 | active: -0.383 | inactive: -0.14 | inactive: -0.057 | inactive: 0.001 | inactive: -0.035 | inactive: -0.04 | inactive: 0.013 | – | –
4 | NLN (UniProt Q9BYT8) | inactive: -0.014 | inactive: -0.007 | inactive: 0.013 | inactive: -0.028 | inactive: 0.037 | inactive: -0.009 | inactive: -0.058 | inactive: -0.014 | inactive: -0.045 | inactive: -0.038 | inactive: 0.001 | inactive: 0.014 | inactive: -0.018 | inactive: -0.018 | inactive: 0.01 | inactive: 0.02 | inactive: 0.002 | inactive: 0.028 | inactive: 0.062 | inactive: -0.05
5 | NOP16 (UniProt Q9Y3C1) | inactive: 0.058 | inactive: 0.002 | inactive: -0.325 | inactive: 0.464 | inactive: 0.376 | inactive: 0.063 | inactive: 0.27 | inactive: -0.093 | inactive: 0.102 | inactive: -0.147 | inactive: 0.026 | inactive: 0.14 | inactive: 0.218 | inactive: 0.006 | inactive: -0.357 | inactive: -0.156 | inactive: 0.181 | inactive: -0.161 | inactive: -0.15 | inactive: 0.04
6 | NLRP2 (UniProt Q9NX02) | inactive: 0.084 | inactive: -0.08 | inactive: -0.03 | inactive: 0.183 | inactive: -0.04 | inactive: 0.105 | inactive: 0.112 | inactive: -0.059 | inactive: 0.017 | inactive: -0.038 | inactive: -0.096 | inactive: -0.06 | inactive: -0.174 | inactive: 0.009 | inactive: -0.064 | inactive: -0.03 | inactive: -0.157 | inactive: -0.076 | inactive: -0.003 | inactive: 0.098
7 | NOP14 (UniProt P78316) | inactive: 0.009 | inactive: -0.021 | inactive: 0.11 | inactive: 0.353 | inactive: 0 | inactive: 0.082 | inactive: 0.056 | – | – | inactive: -0.027 | inactive: -0.173 | inactive: 0.052 | inactive: -0.022 | inactive: -0.118 | inactive: -0.163 | – | – | inactive: 0.025 | inactive: -0.083 | inactive: 0.182
8 | NSD3 (UniProt Q9BZ95) | inactive: -0.189 | inactive: -0.049 | inactive: -0.451 | inactive: 0.086 | inactive: -0.187 | inactive: -0.341 | inactive: 0.02 | – | inactive: -0.234 | inactive: 0.036 | – | – | inactive: 0.255 | – | inactive: -0.13 | – | – | – | inactive: -0.101 | inactive: -0.045
9 | NQO2 (UniProt P16083) | inactive: 0 | inactive: 0.088 | inactive: 0.023 | inactive: -0.141 | inactive: 0.055 | inactive: -0.034 | inactive: 0 | inactive: 0.015 | inactive: -0.073 | inactive: -0.024 | inactive: 0.045 | inactive: 0.002 | inactive: -0.007 | inactive: -0.014 | inactive: 0.072 | inactive: 0.042 | inactive: -0.031 | inactive: 0.027 | inactive: 0.048 | inactive: -0.004
10 | NFATC4 isoform 2 (UniProt Q14934) | inactive: 0.001 | inactive: -0.109 | inactive: 0.059 | inactive: 0.099 | inactive: -0.148 | inactive: -0.016 | inactive: 0.063 | inactive: -0.263 | inactive: 0.041 | inactive: -0.05 | – | – | inactive: 0.187 | – | inactive: 0.051 | inactive: -0.216 | inactive: -0.175 | inactive: -0.11 | inactive: 0.186 | inactive: 0
11 | NME1 isoform 2 (UniProt P15531) | inactive: 0.013 | inactive: 0.012 | inactive: 0.161 | inactive: 0.01 | inactive: -0.144 | inactive: 0.195 | inactive: -0.015 | inactive: 0 | inactive: 0.011 | inactive: -0.175 | inactive: -0.115 | inactive: 0.182 | inactive: -0.286 | inactive: -0.003 | inactive: 0.088 | inactive: -0.013 | inactive: 0.06 | inactive: -0.103 | – | –
12 | NFKBIE (UniProt O00221) | inactive: -0.022 | inactive: -0.019 | inactive: -0.012 | inactive: 0.075 | inactive: -0.087 | inactive: 0.017 | inactive: -0.026 | inactive: 0.062 | – | inactive: 0.038 | inactive: 0.019 | inactive: -0.345 | inactive: 0.029 | inactive: 0.027 | inactive: 0.021 | inactive: -0.074 | inactive: 0.027 | inactive: 0.15 | inactive: 0.003 | inactive: 0.049
13 | NFATC3 (UniProt Q12968) | inactive: -0.06 | inactive: -0.179 | inactive: 0.014 | inactive: -0.04 | inactive: -0.161 | inactive: 0.091 | inactive: 0.066 | inactive: 0.256 | inactive: 0.041 | inactive: -0.064 | inactive: -0.121 | inactive: -0.316 | inactive: -0.042 | inactive: -0.3 | inactive: -0.073 | inactive: 0.191 | inactive: 0.01 | inactive: -0.01 | – | –
14 | NFYC (UniProt Q13952) | inactive: 0.022 | inactive: 0.013 | inactive: 0.054 | inactive: 0.005 | inactive: 0.002 | inactive: 0.027 | inactive: 0.001 | inactive: 0.089 | inactive: -0.017 | inactive: -0.041 | inactive: -0.024 | inactive: -0.021 | inactive: 0.032 | inactive: -0.008 | inactive: 0.014 | inactive: 0.048 | inactive: 0.038 | inactive: 0.066 | – | –
15 | NISCH (UniProt Q9Y2I1) | inactive: -0.026 | inactive: -0.284 | inactive: 0.035 | inactive: 0.047 | inactive: -0.4 | inactive: 0.126 | inactive: 0.054 | active: -0.408 | inactive: -0.053 | inactive: 0.053 | inactive: -0.138 | inactive: -0.158 | inactive: -0.233 | inactive: -0.324 | inactive: -0.002 | inactive: -0.02 | inactive: -0.03 | inactive: -0.009 | – | –
16 | NFATC2IP (UniProt Q8NCF5) | inactive: 0.014 | inactive: 0.023 | inactive: 0.195 | inactive: -0.009 | inactive: 0.011 | inactive: 0.045 | inactive: -0.03 | inactive: 0.024 | inactive: 0.065 | inactive: -0.029 | inactive: 0.001 | inactive: -0.153 | inactive: -0.096 | inactive: -0.146 | inactive: 0.097 | inactive: 0.049 | inactive: -0.003 | inactive: 0.051 | – | –
17 | NELFA (UniProt Q9H3P2) | inactive: -0.01 | inactive: 0.082 | inactive: 0.198 | inactive: -0.011 | inactive: 0.004 | inactive: 0.234 | inactive: -0.014 | inactive: -0.068 | inactive: -0.145 | inactive: 0.027 | inactive: 0.032 | inactive: -0.311 | inactive: -0.112 | inactive: -0.152 | inactive: 0.015 | inactive: 0.018 | inactive: -0.141 | inactive: -0.034 | – | –
18 | NNT (UniProt Q13423) | inactive: 0.031 | inactive: 0.032 | inactive: 0.047 | inactive: -0.06 | active: -0.246 | inactive: -0.006 | inactive: -0.023 | inactive: 0.02 | inactive: -0.02 | inactive: 0.056 | inactive: -0.005 | inactive: -0.006 | inactive: -0.02 | inactive: -0.018 | inactive: 0.071 | inactive: 0.037 | inactive: -0.034 | inactive: 0.021 | – | –

In a second layout: entries from further up.

| Row | Target | log2 fold change [1] | log2 fold change (crizotinib) | log2 fold change [2] | log2 fold change [3] | log2 fold change (gandotinib) | log2 fold change [4] | log2 fold change (doramapimod) | log2 fold change (ispinesib) | log2 fold change (bafetinib) | log2 fold change [5] | log2 fold change (nilotinib) | log2 fold change [6] | log2 fold change (dasatinib) | log2 fold change [7] | log2 fold change [8] | log2 fold change [9] | log2 fold change (tipifarnib) | log2 fold change (mubritinib) | log2 fold change (duvelisib) | log2 fold change (tozasertib) |
| --- | --- | --- | --- | --- | --- | --- | --- | --- | --- | --- | --- | --- | --- | --- | --- | --- | --- | --- | --- | --- | --- |
| 3 | NIBAN1 (UniProt Q9BZQ8) | inactive: 0.02 | inactive: -0.296 | inactive: 0.014 | inactive: 0.097 | inactive: -0.143 | inactive: 0.116 | inactive: 0.001 | inactive: -0.148 | inactive: -0.013 | inactive: 0.121 | inactive: -0.041 | active: -0.383 | inactive: -0.14 | inactive: -0.057 | inactive: 0.001 | inactive: -0.035 | inactive: -0.04 | inactive: 0.013 | – | – |
| 4 | NLN (UniProt Q9BYT8) | inactive: -0.014 | inactive: -0.007 | inactive: 0.013 | inactive: -0.028 | inactive: 0.037 | inactive: -0.009 | inactive: -0.058 | inactive: -0.014 | inactive: -0.045 | inactive: -0.038 | inactive: 0.001 | inactive: 0.014 | inactive: -0.018 | inactive: -0.018 | inactive: 0.01 | inactive: 0.02 | inactive: 0.002 | inactive: 0.028 | inactive: 0.062 | inactive: -0.05 |
| 5 | NOP16 (UniProt Q9Y3C1) | inactive: 0.058 | inactive: 0.002 | inactive: -0.325 | inactive: 0.464 | inactive: 0.376 | inactive: 0.063 | inactive: 0.27 | inactive: -0.093 | inactive: 0.102 | inactive: -0.147 | inactive: 0.026 | inactive: 0.14 | inactive: 0.218 | inactive: 0.006 | inactive: -0.357 | inactive: -0.156 | inactive: 0.181 | inactive: -0.161 | inactive: -0.15 | inactive: 0.04 |
